Assay results as given in the supplement of paper PMC6119338.
± gives the standard deviation of the averaged measurements. Some of the results follow. Repeats are few or missing, and single values can be far off.

Test system: Plasmodium berghei sporozoites
Assay: residual sporozoite gliding motility relative to DMSO control; higher = less inhibition of motility
Details: 10 µM; incubation time 30 min

Structure (SMILES)	residual sporozoite gliding motility
CC(C)CNC(=O)c1c(N)n(CCc2ccccc2F)c2nc3ccccc3nc12	> 50%
CCCCCCOC(=O)C1=C(C)NC(=O)NC1c1ccccc1F (stereo unspecified)	> 50%
CCOc1ccc(Nc2ccnc3cc(Cl)ccc23)cc1	> 50%
Cc1sc2ncnc(Sc3nc4ccccc4[nH]3)c2c1C	> 50%
COc1ccc2nc(C)cc(Nc3ccc(Cl)cc3)c2c1	> 50%
COc1cccc(NC(=O)[C@H](C(C)C)n2c(=O)[nH]c3ccccc3c2=O)c1	> 50%
COc1ccc(-c2cn3c(C(=O)Nc4ccccc4Cl)c(-c4ccccc4)c4c3n2CCCC4)cc1	> 50%
O=C(NC(c1ccccc1)c1ccc2cccnc2c1O)c1ccccc1 (stereo unspecified)	45.3 ± 6.4%
CC(C)=CCN1CCC(C(=O)Nc2ccc(-c3nc4ccccc4[nH]3)cc2)CC1	> 50%
O=C(Nc1ccc(CN2CCOCC2)cc1)c1ccc(-c2ccc(Br)cc2)o1	> 50%
Cc1cc(Nc2ccc3ccccc3c2)n2ncnc2n1	> 50%
CN(C)c1ccc(N2C(N)=NC(N)=NC2(C)C)cc1	> 50%
Oc1ccc2ccccc2c1CNc1nc2ccccc2[nH]1	> 50%
Cc1ccc(C2CC(C(F)(F)F)n3nc(C(=O)N4CCN(C(c5ccccc5)c5ccccc5)CC4)cc3N2)cc1 (stereo unspecified)	> 50%
COc1cccc(Nc2nc(N)c3ccccc3n2)c1	> 50%
COc1ccccc1N1CCN(C(CNS(=O)(=O)c2ccc(Cl)cc2)c2cccnc2)CC1 (stereo unspecified)	> 50%
O=C(CCc1ccccc1)c1ccccc1OCC(O)CN1CCCCC1 (stereo unspecified)	> 50%
COc1cc(-c2nc(-c3ccc(Sc4ccccc4)cc3)c(-c3ccccc3)[nH]2)cc(OC)c1O	> 50%

Grouped by structure: the compounds so far containing an aryl thioether with sulfur outside any ring
Structure (SMILES)	residual sporozoite gliding motility
Cc1sc2ncnc(Sc3nc4ccccc4[nH]3)c2c1C	> 50%
COc1cc(-c2nc(-c3ccc(Sc4ccccc4)cc3)c(-c3ccccc3)[nH]2)cc(OC)c1O	> 50%

Next part.

Structure (SMILES)	residual sporozoite gliding motility
O=C(NCc1ccco1)C1CCN(S(=O)(=O)c2ccc(Br)cc2)CC1	> 50%
Cc1ccc2c(C)nc(Nc3nc(C)cc(-c4ccccc4)n3)nc2c1	> 50%
COc1cccc(Cn2c(Oc3ccccc3)nc3c2c(=O)n(C)c(=O)n3C)c1	> 50%
FC(F)(F)c1cccc(CNC2CCN(CCc3ccccc3)CC2)c1	> 50%
OC1=C2C(=Nc3ccccc3SC2c2ccc(Br)cc2)c2ccccc21 (stereo unspecified)	> 50%
COc1ccc(OC)c(C2C3=C(CC(C)(C)CC3=O)N(c3ccc(Cl)c(Cl)c3)C3=C2C(=O)CC(C)(C)C3)c1	> 50%
c1ccc(-c2ccc(-c3nc4ccccc4[nH]3)cc2)cc1	> 50%
OC(CNC1CCCC1)Cn1c2ccccc2c2ccccc21 (stereo unspecified)	> 50%
Cc1cc(=O)oc2c1ccc1oc(C(=O)c3ccccc3)c(C)c12	> 50%
CC(C)(C)c1ccc(C(=O)Nc2c3c(nn2-c2cccc(Cl)c2)CSC3)cc1	> 50%
COc1ccc(-c2nonc2NC(=O)c2cccc(Cl)c2)cc1OC	> 50%
O=C(NC1CCN(Cc2ccccc2)CC1)c1cc(-c2cccnc2)nc2ccc(Cl)cc12	> 50%
CCC(c1ccccc1)c1nn2c(-c3cccs3)nnc2s1 (stereo unspecified)	> 50%
CN1CCN(c2ccc(Nc3c4ccccc4nc4ccccc34)cc2)CC1	> 50%
Cc1ccc(C(=O)c2oc3ccc4c(C)cc(=O)oc4c3c2C)cc1	> 50%
Cc1cc(Nc2ccc(OCc3ccccc3)cc2)nc2cc(O)ccc12	> 50%
OCCNc1nc(Nc2ccc(Cl)c(Cl)c2)nc2ccccc12	> 50%
Cc1ccc(NC(=O)Nc2cccc(Cl)c2)cc1F	> 50%
